Literature values, collected in article PMC7527510, “Identification of the dog orthologue of human MAS-related G protein coupled receptor X2 (MRGPRX2) essential for drug-induced pseudo-allergic reactions” (Scientific Reports, 2020).

Key:
[1] = test system: dispersed canine skin mast cells; set-up: method as in PMID 10864147; conditions: cited from earlier work
[2] = test system: dispersed mast cells of human skin; conditions: cited from earlier work

O=C(O)c1cn(C2CC2)c2cc(N3CCNCC3)c(F)cc2c1=O [CPFX, ciprofloxacin]
Concentration inducing histamine release from dispersed canine skin mast cells [1]: ≥ 10 µg/mL
Concentration required to induce histamine release from dispersed mast cells of human skin [2]: 200 µg/mL
